Laboratory results: patent US20110144125A1, “Anti-Arrhythmia Agents, Methods of Their Use, Methods of Their Identification and Kits Therefore” (THE UAB RESEARCH FOUNDATION, priority 2008, published 2011)
For some of these results: At least one structure is not confirmed: it was looked up by name or label, or the drawing left a doubt. Some of these results come from one statement about several compounds together.

What was measured:
[1] = system: rat left atrial appendage; test: 2-APB-induced spontaneous mechanical activity (SMA/SMEs) in isolated superfused rat left atria / left atrial appendage
Experimental: (§1) Left atria were isolated from male Sprague-Dawley rats (325 to 400 g) under IP pentobarbital anesthesia (0.1 g/kg). Isolated left atria were superfused at 30° C. in Krebs-Henseleit (KH) buffer of the following mM composition: NaCl, 118; NaHCO3, 27; KCl, 4.8; MgSO4, 1.2; KH2PO4, 1.0; CaCl2, 1.8; and glucose, 11.1. Nearly isometric left atrial forces of contraction were measured as described.
Isolated superfused left atria were paced at 3 Hz. 2-APB was added to atrial superfusates from 0.015 or 0.15M DMSO stock solutions to achieve concentrations of 0, 2, 7.5, 15, or 22 μM (n=5 to 10 atria per concentration). Changes in atrial mechanical force were recorded during a subsequent 15 min superfusion.
Two groups of 5 to 6, 3 Hz paced atria were superfused in KH and exposed to 0 or 15 μM 2-APB for 10 min. The pacing stimulus was interrupted for 5 min and the number of spontaneous mechanical events (SMEs), defined as increases in mechanical force occurring in the absence of pacing, were measured as was the postrest potentiation response (PRP).
To determine whether diastolic interval affected the interaction between 2-APB and left atria, atrial pacing was decreased to 0.1 Hz, and 0, 7.5, or 22 μM 2-APB was added to the superfusate (n=6-8 per group). Superfusions continued for 15 min, and changes in atrial mechanical function were observed.
To establish whether SMA was reversible, atria (n=7) were paced at 0.1 Hz, exposed to 15 μM 2-APB for 10 min, and washed with KH. The effect of removing 2-APB on atrial mechanical function was recorded.
To test whether an anion transport inhibitor affected SMA, atria (n=7) were paced at 0.1 Hz in KH and exposed to 15 μM 2-APB. […] Whether SMA occurred at the end of each titration period was recorded. […]
The appendages then were titrated with increasing concentrations of 2-APB, and SMA was measured and recorded.
To determine the anti-arrhythmic activity of gossypol, isolated rat left atrial appendage and right ventricular muscle strips were used as model systems, as described above. Heart muscle was exposed to 20 μM 2-APB for 10 min to induce SMA, and rates of SMA were recorded as a percentage of initial SMA. […] Rates of SMA were recorded ˜10 min after the addition of concentration of the polyphenol.
To determine whether EGCG can prevent arrhythmia, rat left atrial appendages (n=9) were exposed to 20 μM 2-APB and rates of SMA were recorded. […] Rates of SMA were recorded 10 min later.
To determine whether EGCG is effective to reverse arrhythmia, isolated rat left atrial appendage and right ventricular muscle strips were used as model systems, as described above. Rat left atrial appendages were exposed to 20 μM 2-APB for 10 min to induce SMA, and rates of SMA were recorded as a percentage of initial SMA. […]

rat left atria [2] = test: Left atrial force of contraction / post-rest potentiation maximum force; settings: no 2-APB; 30 nM isoproterenol, 3 μM forskolin, 300 nM BayK 8644 or FPL-64176, 120 μM ouabain, 600 nM ryanodine
Experimental: as §1
The initial potentiated beat following prolonged rest (i.e., the PRP maximum force of contraction) reflects activator calcium available for SR release. The PRP response was used to obtain an indirect measure of left atrial SR calcium under our conditions.
Left atria (n=6) were superfused in KH, paced at 0.1 Hz, and subjected to PRP. […]
One group (n=8) was superfused in KH, paced at 0.1 Hz, and their maximum force of contraction was measured. […]
(§2) Left atria (n=8 per group) were paced at 3 Hz and (i) titrated with 0 to 30 nM isoproterenol (Ahlquist, 1970) or (ii) exposed to 3 μM forskolin (Laurenza et al., 1980). Left atrial force and frequency of contraction, the time to peak tension and relaxation times were recorded after a 3-5 min exposure to forskolin or to any concentration of isoproterenol. […]
Left atria (n=7) were paced at 3 Hz, treated with 120 μM ouabain (Illanes and Marshall, 1964), and any change in mechanical function was recorded at a new steady state, ˜10 min later. […]

rat left atria [3] = test: Spontaneous tachycardic activity (STA) in isolated rat left atria exposed to 2-APB under increased calcium load; settings: 20 μM 2-APB plus 30 nM isoproterenol, 3 μM forskolin, 300 nM BayK 8644, 300 nM FPL-64176 or 120 μM ouabain; absence of pacing; 30° C.
Experimental: Male Sprague-Dawley rats (325-400 g) were anesthetized with intra-peritoneal pentobarbital (0.1 g/kg). Their right and left atria were isolated, superfused at 30° C. in Krebs-Henseleit buffer, and nearly isometric forces of contraction were measured from these muscles (Wolkowicz et al., 2002). 2-APB was prepared as a 150 mM dimethyl sulfoxide stock.
as §2, with “isoproterenol. The 3 Hz pacing stimulus was interrupted at the end of these protocols to measure SMEs.” for “isoproterenol.”
Left atrial contraction and relaxation times were recorded at these five times, the pacing stimulus was stopped and rates of SMA were recorded. […] Atrial mechanical function was measured at these four times; the pacing stimulus then was stopped and rates of SMA were recorded. […]
Left atria (n=8 per group) were paced at 0.1 Hz, exposed to 300 nM BayK 8644 or FPL-64176 for 5 min followed by 20 μM 2-APB for 10 min. Atrial mechanical function was recorded at this time; the pacing stimulus then was stopped and rates of SMA were recorded. […]
Rates of SMA were measured 5 min later. […]

[4] = unpaced, ˜25 μM 2-APB and 10 mM caffeine

Row | Structure (SMILES) | ectopic activity (SMEs/SMA/STA) with agent alone ([1]; no 2-APB, 30 nM isoproterenol, 3 μM forskolin, 300 nM BayK 8644 or FPL-64176, 120 μM ouabain, 600 nM ryanodine) | left atrial force of contraction with agent alone (rat left atria [2]) | rate of STA (SMA frequency) in presence of 2-APB and calcium loading agent (rat left atria [3]) | time until all automatic mechanical activity ceases ([1]; 2-APB and 10 mM caffeine) | SMA shortly thereafter [1, 4] | rate of left atrial SMA immediately after exposure [1, 4]
1 | C=C[C@@]1(C)CC(=O)[C@]2(O)[C@@]3(C)[C@@H](O)CCC(C)(C)[C@@H]3[C@H](O)[C@H](OC(C)=O)[C@@]2(C)O1 [forskolin] | quiescent in the absence of pacing | increase left atrial force of contraction | > 200 contractions/min |  |  | 
2 | CC(C)NCC(O)c1ccc(O)c(O)c1 (stereo not shown) [isoproterenol] |  |  | > 200 contractions/min |  |  | 
3 | Cn1c(=O)c2c(ncn2C)n(C)c1=O [caffeine] |  |  |  | 1 to 3 min | ceased completely | markedly increased
